Laboratory results: US20070196883A1, “ENZYME” (UNIVERSITY OF DUNDEE, priority 1999, published 2007)
Positions count from the first letter of the chain named. No constants are given. Whether binding was seen depends on the method and setting. For some assays here: In cells and extracts the contact can be indirect. Some entries that bind do so weakly or less than the wild type. For some assays here: Sequences can lack the tags named with a protein.

The chains behind the UniProt entries cited, without tags or fusion partners. Where a name states a change or a piece, a line headed by the entry shows the natural chain unless it says otherwise.
UniProt Q16513: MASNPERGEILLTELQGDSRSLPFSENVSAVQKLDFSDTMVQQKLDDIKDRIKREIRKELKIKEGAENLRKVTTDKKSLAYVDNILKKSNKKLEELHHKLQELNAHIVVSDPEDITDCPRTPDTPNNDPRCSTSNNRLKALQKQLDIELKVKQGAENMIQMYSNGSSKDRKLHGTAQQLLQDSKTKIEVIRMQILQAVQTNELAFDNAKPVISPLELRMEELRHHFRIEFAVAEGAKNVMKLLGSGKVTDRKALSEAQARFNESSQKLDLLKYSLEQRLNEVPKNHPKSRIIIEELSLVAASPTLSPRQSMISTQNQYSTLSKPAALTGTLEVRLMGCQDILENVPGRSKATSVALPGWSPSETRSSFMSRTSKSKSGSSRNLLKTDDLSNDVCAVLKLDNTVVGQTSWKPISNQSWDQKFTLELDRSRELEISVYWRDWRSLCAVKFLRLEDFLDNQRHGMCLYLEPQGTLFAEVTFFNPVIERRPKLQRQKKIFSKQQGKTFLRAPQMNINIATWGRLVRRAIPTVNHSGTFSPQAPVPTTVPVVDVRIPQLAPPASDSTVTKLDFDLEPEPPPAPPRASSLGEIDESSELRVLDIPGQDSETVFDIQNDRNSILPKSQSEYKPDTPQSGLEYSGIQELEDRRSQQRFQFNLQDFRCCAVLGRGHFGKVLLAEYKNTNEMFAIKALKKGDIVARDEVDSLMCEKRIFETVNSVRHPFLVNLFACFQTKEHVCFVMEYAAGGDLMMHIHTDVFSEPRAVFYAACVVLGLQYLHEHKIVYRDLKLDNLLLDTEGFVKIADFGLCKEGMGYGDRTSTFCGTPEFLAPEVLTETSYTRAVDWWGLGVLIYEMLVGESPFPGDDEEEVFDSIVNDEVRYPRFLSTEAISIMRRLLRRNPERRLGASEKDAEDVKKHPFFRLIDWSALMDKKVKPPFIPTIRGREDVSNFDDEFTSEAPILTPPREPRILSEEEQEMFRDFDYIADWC

Legend:
[1] = molecular target: T1, wild type Myc-PDK1 (Myc epitope-tagged PDK1) (human) (UniProt O15530); assay: co-expression in 293 cells, pull-down
T1 sequence: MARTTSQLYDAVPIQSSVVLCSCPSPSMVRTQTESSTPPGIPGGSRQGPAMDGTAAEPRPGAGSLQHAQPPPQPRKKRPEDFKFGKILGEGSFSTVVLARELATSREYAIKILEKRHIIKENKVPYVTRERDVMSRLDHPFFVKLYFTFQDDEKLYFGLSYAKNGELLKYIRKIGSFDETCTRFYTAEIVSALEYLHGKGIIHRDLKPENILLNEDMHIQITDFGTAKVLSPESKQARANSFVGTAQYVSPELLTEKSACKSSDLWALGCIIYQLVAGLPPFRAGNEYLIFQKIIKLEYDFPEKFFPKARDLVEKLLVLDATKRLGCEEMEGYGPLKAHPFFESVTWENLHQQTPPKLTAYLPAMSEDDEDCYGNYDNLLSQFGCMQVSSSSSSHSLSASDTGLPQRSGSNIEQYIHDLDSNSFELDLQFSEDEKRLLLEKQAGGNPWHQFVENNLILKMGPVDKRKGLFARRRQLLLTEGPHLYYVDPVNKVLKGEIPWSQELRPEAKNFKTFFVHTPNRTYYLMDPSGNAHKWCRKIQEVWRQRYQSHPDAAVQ

[2] = molecular target: T2, kinase domain of Myc-PDK1 (residues 51 to 404) (human) (UniProt O15530); assay: co-expression in 293 cells, glutathione-Sepharose pull-down and Myc immunoprecipitation, Coomassie gel
T2 sequence: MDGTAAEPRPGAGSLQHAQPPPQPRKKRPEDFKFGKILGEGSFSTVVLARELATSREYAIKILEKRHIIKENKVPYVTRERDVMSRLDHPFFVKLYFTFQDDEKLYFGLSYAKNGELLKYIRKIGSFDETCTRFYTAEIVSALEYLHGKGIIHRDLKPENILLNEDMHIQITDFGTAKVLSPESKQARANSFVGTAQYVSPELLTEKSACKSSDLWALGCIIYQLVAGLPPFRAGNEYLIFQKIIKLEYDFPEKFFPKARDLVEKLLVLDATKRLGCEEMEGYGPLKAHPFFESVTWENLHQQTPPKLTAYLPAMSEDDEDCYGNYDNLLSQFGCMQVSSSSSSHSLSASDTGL

[3] = molecular target: T1, wild type Myc-PDK1 (Myc epitope-tagged PDK1) (human); assay: as above
[4] = molecular target: T3, kinase dead Myc-PDK1 (K111A, D223A) (human) (UniProt O15530); assay: as above
T3 sequence: T1 sequence with K111A, D223A

[5] = molecular target: T4, kinase domain of PDK1 in pAS2-1 (yeast two-hybrid) (human) (UniProt O15530); assay: yeast two-hybrid
T4 sequence: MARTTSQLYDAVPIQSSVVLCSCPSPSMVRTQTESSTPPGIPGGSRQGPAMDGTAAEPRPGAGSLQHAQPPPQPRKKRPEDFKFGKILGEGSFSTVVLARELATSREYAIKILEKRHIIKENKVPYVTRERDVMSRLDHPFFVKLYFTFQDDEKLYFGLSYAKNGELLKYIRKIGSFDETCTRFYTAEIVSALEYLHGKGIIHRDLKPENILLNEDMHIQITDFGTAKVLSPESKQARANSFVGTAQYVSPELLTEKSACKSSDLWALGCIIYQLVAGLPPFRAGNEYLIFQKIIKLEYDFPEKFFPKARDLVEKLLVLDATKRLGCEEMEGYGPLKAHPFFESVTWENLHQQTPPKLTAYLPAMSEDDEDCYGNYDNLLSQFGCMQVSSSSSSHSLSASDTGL

| Substance | binding [1] | binding [2] | binding [3] | binding [4] | binding [5] |
| --- | --- | --- | --- | --- | --- |
| GST-PIF (glutathione-S-transferase fusion of the C-terminal 77 amino acids of PRK2) (from UniProt Q16513 908-984) | binds | binds | binds | binds |  |
| PDK1-Interacting Fragment (PIF), C-terminal 77 amino acids of PRK2, expressed from pGAD10 in yeast (from UniProt Q16513 908-984) |  |  |  |  | binds |
